Experimental data from PubChem BioAssay AID192 (DTP/NCI, 2004).
The list is a part of this screen's results and no random one: it is rich in T/C values a quarter to a half above the control, in often repeated tests (any T/C) and in doses without a T/C. Other doses and runs of a compound stand elsewhere. T/C: endpoint of the treated group in % of that of the vehicle group. Some doses have a count of surviving animals in place of a T/C: the source files T/C as zero there, which appears to mark a toxic dose or a test without result, not a measured value. Some doses without a T/C left all or most animals alive at the check, yet need not have been tolerated: survival well below the control is almost never listed, so the zero probably covers shortened survival too. Survivors were counted at the toxicity check, usually on the fifth day, unless a day is given; later deaths do not show. Schedule codes are those of the source, read here as Q, the interval in days (D) or hours (H), X, the number of doses. Marks such as (2×) give the number of equal values in this list. Some doses were run more than once; the results are listed from low to high. Where survival is the endpoint, this PubChem deposit counts one and a half times the control or more as active, and values a quarter to a half above the control carry no call in these data; other NCI protocols may use other cut-offs. Some T/C values are followed by the survivors on the day toxicity was checked, most often the fifth; where none is given, no animal had died by that day. Numbered stars: 1 amine (or outer) side, 2 acyl side, 3 side chain; on linkers, the order of the positions; unused ones are H or OH. Bridge positions count the residues as written; N and C are the ends. Square brackets hold non-standard residues; d marks the D form. Peptide text beside a SMILES is read from it. I, II: the chains in the order shown. Actinocin(9to1) = Cc1c2oc3c(C)ccc(C(=O)[*:1])c3nc-2c(C(=O)[*:2])c(N)c1=O; aThr = C[C@H](O)[C@H](N)C(=O)O; NMeV = CN[C@H](C(=O)O)C(C)C; Sar = CNCC(=O)O

Test system: BDF1 mice, B16 melanoma ip, median survival T/C
Experiment: NCI In Vivo Anticancer Drug Screen. Data for tumor model B16 Melanoma (intraperitoneal) in B6D2F1 (BDF1) mice
Conditions: T/C endpoint: median survival time, higher T/C = longer survival
Method in brief: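 Transplantable tumor model; survival or tumor size measured; reported as T/C, treated over vehicle control.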

## Cc1c2oc3c(C)ccc(C(=O)N[C@@H]4C(=O)N[C@H](C(C)C)C(=O)N5CCC[C@H]5C(=O)N(C)CC(=O)N(C)[C@@H](C(C)C)C(=O)O[C@H]4C)c3nc-2c(C(=O)N[C@@H]2C(=O)N[C@H](C(C)C)C(=O)N3CCC[C@H]3C(=O)N(C)CC(=O)N(C)[C@@H](C(C)C)C(=O)O[C@H]2C)c(N)c1=O (I: [aThr][dV]P[Sar][NMeV] / II: [aThr][dV]P[Sar][NMeV]; ester I:1-I:C, II:1-II:C; linker I:N-II:N via Actinocin(9to1))
dose: 30.0 micrograms/kg/injection, schedule: Q01DX009 (ip), vehicle: saline
  T/C: 134 % of control
dose: 32.0 micrograms/kg/injection, schedule: Q04DX003 (ip), vehicle: saline
  T/C: 130 % of control
dose: 36.0 micrograms/kg/injection, schedule: Q01DX009 (ip), vehicle: saline + alcohol
  T/C: 140 % of control
dose: 37.5 micrograms/kg/injection, schedule: Q04DX003 (ip), vehicle: saline + alcohol, evaluated on day 45
  T/C: 106, 108, 124, 125 % of control
dose: 37.5 micrograms/kg/injection, schedule: Q04DX003 (ip), vehicle: saline + alcohol, evaluated on day 60
  T/C: 128 % of control
dose: 50.0 micrograms/kg/injection, schedule: Q01DX009 (ip), vehicle: saline, evaluated on day 45
  T/C: 133 and 154 % of control
dose: 50.0 micrograms/kg/injection, schedule: Q01DX009 (ip), vehicle: saline, evaluated on day 60
  T/C: 91, 102, 107, 109 [5 of 6 alive], 113, 116, 116 [5 of 6 alive], 120, 128, 135, 136, 152, 153, 155, 161, 163, 164, 164 [9 of 10 alive], 165, 165 [9 of 10 alive], 175 (2×), 176, 177, 196 % of control
dose: 50.0 micrograms/kg/injection, schedule: Q01DX009 (ip), vehicle: saline
  survivor count: 2 of 6, 3 of 6, 5 of 6, 6 of 6
dose: 50.0 micrograms/kg/injection, schedule: Q01DX009 (ip), vehicle: water
  T/C: 133 % of control
dose: 64.0 micrograms/kg/injection, schedule: Q01DX009 (ip), vehicle: saline
  survivor count: 10 of 10
dose: 64.0 micrograms/kg/injection, schedule: Q01DX017 (ip), vehicle: saline
  survivor count: 10 of 10
dose: 64.0 micrograms/kg/injection, schedule: Q04DX003 (ip), vehicle: saline
  T/C: 130 % of control
dose: 64.8 micrograms/kg/injection, schedule: Q04DX003 (ip), vehicle: saline + alcohol
  T/C: 144 % of control
dose: 75.0 micrograms/kg/injection, schedule: Q01DX009 (ip), vehicle: saline + alcohol
  T/C: 142 % of control
dose: 75.0 micrograms/kg/injection, schedule: Q04DX003 (ip), vehicle: saline + alcohol, evaluated on day 45
  T/C: 128, 133, 152, 154 % of control
dose: 75.0 micrograms/kg/injection, schedule: Q04DX003 (ip), vehicle: saline + alcohol, evaluated on day 60
  T/C: 133 % of control
dose: 75.0 micrograms/kg/injection, schedule: Q04DX003 (ip), vehicle: saline
  T/C: 128 % of control
dose: 100.0 micrograms/kg/injection, schedule: Q01DX009 (ip), vehicle: saline + alcohol
  survivor count: 8 of 8
dose: 100.0 micrograms/kg/injection, schedule: Q01DX009 (ip), vehicle: saline, evaluated on day 45
  T/C: 126 and 181 % of control
dose: 100.0 micrograms/kg/injection, schedule: Q01DX009 (ip), vehicle: saline, evaluated on day 60
  T/C: 88, 90, 116, 121, 125, 132, 134, 143, 168 [9 of 10 alive], 169, 179, 186, 212 % of control
dose: 100.0 micrograms/kg/injection, schedule: Q01DX009 (ip), vehicle: saline
  survivor count: 0 of 6, 3 of 6, 4 of 6, 5 of 6, 9 of 10, 10 of 10 (2×), 6 of 6
dose: 100.0 micrograms/kg/injection, schedule: Q01DX009 (ip), vehicle: water
  survivor count: 10 of 10 (2×)
dose: 112.5 micrograms/kg/injection, schedule: Q04DX003 (ip), vehicle: saline
  T/C: 139 and 140 % of control
dose: 128.0 micrograms/kg/injection, schedule: Q01DX001 (ip), vehicle: saline
  T/C: 130 % of control
dose: 128.0 micrograms/kg/injection, schedule: Q01DX009 (ip), vehicle: saline
  survivor count: 8 of 10
dose: 128.0 micrograms/kg/injection, schedule: Q01DX017 (ip), vehicle: saline
  survivor count: 10 of 10
dose: 139.0 micrograms/kg/injection, schedule: Q01DX009 (ip), vehicle: saline
  survivor count: 10 of 10
dose: 150.0 micrograms/kg/injection, schedule: Q04DX003 (ip), vehicle: saline + alcohol, evaluated on day 45
  T/C: 125, 142, 162, 184 % of control
dose: 150.0 micrograms/kg/injection, schedule: Q04DX003 (ip), vehicle: saline + alcohol, evaluated on day 60
  T/C: 116, 164, 177 % of control
dose: 150.0 micrograms/kg/injection, schedule: Q04DX003 (ip), vehicle: saline
  T/C: 141 % of control
dose: 150.0 micrograms/kg/injection, schedule: Q04DX003 (ip), vehicle: water
  T/C: 128 % of control
dose: 200.0 micrograms/kg/injection, schedule: Q01DX009 (ip), vehicle: saline
  survivor count: 6 of 10 (2×), 8 of 10, 5 of 6, 10 of 10 (2×)
dose: 200.0 micrograms/kg/injection, schedule: Q01DX009 (ip), vehicle: water
  survivor count: 10 of 10
dose: 225.0 micrograms/kg/injection, schedule: Q04DX003 (ip), vehicle: saline + alcohol
  survivor count: 8 of 8
dose: 225.0 micrograms/kg/injection, schedule: Q04DX003 (ip), vehicle: saline
  T/C: 128 % of control
dose: 256.0 micrograms/kg/injection, schedule: Q01DX001 (ip), vehicle: saline
  T/C: 145 % of control
dose: 256.0 micrograms/kg/injection, schedule: Q01DX005 (ip), vehicle: saline
  survivor count: 10 of 10
dose: 300.0 micrograms/kg/injection, schedule: Q04DX003 (ip), vehicle: saline + alcohol, evaluated on day 45
  T/C: 156, 171, 173, 179 % of control
dose: 300.0 micrograms/kg/injection, schedule: Q04DX003 (ip), vehicle: saline + alcohol, evaluated on day 60
  T/C: 100 and 177 % of control
dose: 300.0 micrograms/kg/injection, schedule: Q04DX003 (ip), vehicle: saline + alcohol, evaluated on day 70
  T/C: 175 % of control
dose: 300.0 micrograms/kg/injection, schedule: Q04DX003 (ip), vehicle: saline + alcohol
  survivor count: 7 of 8, 10 of 10, 8 of 8
dose: 300.0 micrograms/kg/injection, schedule: Q04DX003 (ip), vehicle: saline
  survivor count: 10 of 10
dose: 400.0 micrograms/kg/injection, schedule: Q01DX009 (ip), vehicle: saline
  survivor count: 9 of 10
dose: 450.0 micrograms/kg/injection, schedule: Q04DX003 (ip), vehicle: saline + alcohol
  survivor count: 8 of 8
dose: 450.0 micrograms/kg/injection, schedule: Q04DX003 (ip), vehicle: saline
  survivor count: 10 of 10
dose: 500.0 micrograms/kg/injection, schedule: Q04DX003 (ip), vehicle: saline + alcohol
  survivor count: 2 of 7 and 10 of 10
dose: 512.0 micrograms/kg/injection, schedule: Q01DX005 (ip), vehicle: saline
  survivor count: 10 of 10
dose: 512.0 micrograms/kg/injection, schedule: Q04DX003 (ip), vehicle: saline
  survivor count: 9 of 10
dose: 600.0 micrograms/kg/injection, schedule: Q04DX003 (ip), vehicle: saline + alcohol, evaluated on day 45
  T/C: 169, 188, 196 % of control
dose: 600.0 micrograms/kg/injection, schedule: Q04DX003 (ip), vehicle: saline + alcohol, evaluated on day 60
  T/C: 204 % of control
dose: 600.0 micrograms/kg/injection, schedule: Q04DX003 (ip), vehicle: saline + alcohol
  survivor count: 8 of 10
dose: 600.0 micrograms/kg/injection, schedule: Q04DX003 (ip), vehicle: water
  survivor count: 10 of 10
